This test addresses FUS recombinant protein (UniProt P35637). Nature of the test: co-IP.

The chains behind the UniProt entries cited, without tags or fusion partners.
UniProt P35637: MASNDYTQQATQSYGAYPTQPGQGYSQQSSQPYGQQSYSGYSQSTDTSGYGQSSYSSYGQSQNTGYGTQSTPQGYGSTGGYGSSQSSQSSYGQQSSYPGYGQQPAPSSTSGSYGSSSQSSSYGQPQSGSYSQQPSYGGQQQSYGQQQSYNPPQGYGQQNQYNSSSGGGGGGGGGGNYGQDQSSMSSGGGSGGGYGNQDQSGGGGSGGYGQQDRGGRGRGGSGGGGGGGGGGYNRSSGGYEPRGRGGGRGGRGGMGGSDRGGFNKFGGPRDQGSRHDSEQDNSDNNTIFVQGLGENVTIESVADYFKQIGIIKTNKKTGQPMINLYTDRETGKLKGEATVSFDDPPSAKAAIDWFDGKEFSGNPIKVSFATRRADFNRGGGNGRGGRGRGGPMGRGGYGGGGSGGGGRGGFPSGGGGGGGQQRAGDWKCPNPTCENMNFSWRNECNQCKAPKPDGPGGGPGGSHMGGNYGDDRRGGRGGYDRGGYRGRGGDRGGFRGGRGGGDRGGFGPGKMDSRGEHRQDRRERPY
UniProt P41161: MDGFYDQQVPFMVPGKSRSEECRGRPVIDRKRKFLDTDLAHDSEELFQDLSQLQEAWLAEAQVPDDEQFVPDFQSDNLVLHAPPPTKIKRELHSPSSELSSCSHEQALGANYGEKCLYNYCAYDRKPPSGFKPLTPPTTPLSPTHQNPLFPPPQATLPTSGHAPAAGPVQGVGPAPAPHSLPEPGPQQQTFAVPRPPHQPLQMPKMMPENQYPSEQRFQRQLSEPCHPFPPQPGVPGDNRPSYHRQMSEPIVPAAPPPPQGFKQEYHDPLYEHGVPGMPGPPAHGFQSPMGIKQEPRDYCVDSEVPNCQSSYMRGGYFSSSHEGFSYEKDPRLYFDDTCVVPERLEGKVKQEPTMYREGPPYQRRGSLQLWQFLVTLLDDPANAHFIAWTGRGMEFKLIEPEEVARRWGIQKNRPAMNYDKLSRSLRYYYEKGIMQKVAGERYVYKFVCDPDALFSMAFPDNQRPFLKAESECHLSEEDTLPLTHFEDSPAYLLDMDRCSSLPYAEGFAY
UniProt Q02078: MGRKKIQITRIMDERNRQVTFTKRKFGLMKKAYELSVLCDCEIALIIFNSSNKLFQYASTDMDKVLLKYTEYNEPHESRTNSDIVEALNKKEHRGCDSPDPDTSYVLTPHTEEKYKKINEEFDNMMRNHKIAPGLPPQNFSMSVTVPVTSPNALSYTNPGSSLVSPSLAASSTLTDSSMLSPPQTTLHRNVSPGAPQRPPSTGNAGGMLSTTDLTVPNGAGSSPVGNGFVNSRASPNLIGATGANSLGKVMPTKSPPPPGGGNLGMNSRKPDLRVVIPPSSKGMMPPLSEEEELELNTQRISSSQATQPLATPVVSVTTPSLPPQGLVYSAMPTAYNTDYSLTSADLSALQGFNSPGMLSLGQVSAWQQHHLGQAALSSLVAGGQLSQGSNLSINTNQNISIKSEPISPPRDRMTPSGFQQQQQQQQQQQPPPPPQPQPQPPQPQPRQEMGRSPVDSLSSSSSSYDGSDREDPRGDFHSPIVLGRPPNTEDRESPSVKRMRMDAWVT

Results are given in words; binding and its absence hold for the method and conditions named. Some results given as binding are weak or reduced against the parent protein; the word gives no strength.

ETV5-CFP (from UniProt P41161 1-510): the binding result is “binds”.
For “MEF2A-mCherry (from UniProt Q02078 1-507)”, the binding entry was “binds”.

The values are drawn from article doi:10.1101/2024.09.18.613669.
